Results are given in words; binding and its absence hold for the method and conditions named. Binding seen in cells or lysates may run through a third protein. Some results given as binding are weak or reduced against the parent protein; the word gives no strength.
What was measured:
[1] = target: HIF-1α, exogenous (HIF-1α expression plasmid in 293T cells) (UniProt Q16665); test: co-IP; PDK1 expression vector and HIF-1α expression plasmid transiently transfected together into 293T cells
[2] = target: Hypoxia-inducible factor 1α (HIF-1α), endogenous (human (endogenous in BT-549, MCF7, HEK-293T)) (UniProt Q16665); test: co-IP; endogenous proteins; BT-549-NC/-KO and MCF7-NC/-sh-PDK1 cells pretreated with CoCl2 for 6 h; lysates incubated with antibody-coated magnetic beads 1 h at room temperature, washed with PBST

Amino acid sequences for entries named in this document (tags omitted). Residues count along the entry.
UniProt Q16665: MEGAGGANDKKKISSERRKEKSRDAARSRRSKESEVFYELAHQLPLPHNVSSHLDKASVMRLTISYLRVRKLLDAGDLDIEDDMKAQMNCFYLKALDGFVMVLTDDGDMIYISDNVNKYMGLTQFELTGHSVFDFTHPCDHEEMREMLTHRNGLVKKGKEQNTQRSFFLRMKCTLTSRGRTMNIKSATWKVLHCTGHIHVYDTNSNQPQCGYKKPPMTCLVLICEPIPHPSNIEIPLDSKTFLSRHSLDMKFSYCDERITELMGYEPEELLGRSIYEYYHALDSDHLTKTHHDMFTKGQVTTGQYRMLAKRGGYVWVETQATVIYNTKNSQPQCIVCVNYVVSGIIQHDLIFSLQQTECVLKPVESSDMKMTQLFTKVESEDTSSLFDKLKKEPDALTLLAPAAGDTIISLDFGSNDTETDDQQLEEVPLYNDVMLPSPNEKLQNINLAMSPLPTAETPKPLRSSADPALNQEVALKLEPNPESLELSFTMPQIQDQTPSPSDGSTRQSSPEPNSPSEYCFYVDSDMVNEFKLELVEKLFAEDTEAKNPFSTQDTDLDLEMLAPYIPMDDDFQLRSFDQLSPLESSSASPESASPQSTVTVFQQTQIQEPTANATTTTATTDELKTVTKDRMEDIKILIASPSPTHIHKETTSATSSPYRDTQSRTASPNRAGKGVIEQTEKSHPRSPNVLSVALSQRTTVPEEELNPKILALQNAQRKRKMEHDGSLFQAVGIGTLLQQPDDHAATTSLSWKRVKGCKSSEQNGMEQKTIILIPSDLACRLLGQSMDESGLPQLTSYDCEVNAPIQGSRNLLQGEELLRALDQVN
UniProt Q15118, residues 29-436: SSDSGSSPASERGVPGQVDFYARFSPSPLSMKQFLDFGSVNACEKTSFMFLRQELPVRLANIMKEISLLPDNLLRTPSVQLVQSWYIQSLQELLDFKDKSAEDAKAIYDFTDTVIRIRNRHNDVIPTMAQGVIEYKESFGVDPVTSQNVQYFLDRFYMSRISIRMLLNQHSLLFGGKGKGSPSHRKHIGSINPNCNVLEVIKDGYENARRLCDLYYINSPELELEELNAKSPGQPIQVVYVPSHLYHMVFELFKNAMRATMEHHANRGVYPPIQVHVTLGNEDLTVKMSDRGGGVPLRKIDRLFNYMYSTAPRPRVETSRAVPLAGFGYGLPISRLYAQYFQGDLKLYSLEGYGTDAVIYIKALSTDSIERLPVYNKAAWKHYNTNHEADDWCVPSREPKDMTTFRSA

Row | Substance | binding [1] | binding [2]
1 | PDK1, exogenous (PDK1 expression vector in 293T cells) (from UniProt Q15118 29-436) (enzyme) | binds | –
2 | Pyruvate dehydrogenase kinase 1 (PDK1), endogenous (from UniProt Q15118 29-436) (enzyme) | – | binds

Source: article PMC10978537
